# Results: US20080318255A1, “Fluorescent Labeled Sphingosines” (priority 2003, published 2008)
# Some results were stated once for a whole list of compounds, not compound by compound.
# Molecular target: T1, human SPHK-2 (Homo sapiens, UniProt Q9NRA0)
# T1 construct: expressed in transfected cells; host or cells: HEK-293 (cytoplasmic fraction)
# T1 sequence (Q9NRA0 1-654): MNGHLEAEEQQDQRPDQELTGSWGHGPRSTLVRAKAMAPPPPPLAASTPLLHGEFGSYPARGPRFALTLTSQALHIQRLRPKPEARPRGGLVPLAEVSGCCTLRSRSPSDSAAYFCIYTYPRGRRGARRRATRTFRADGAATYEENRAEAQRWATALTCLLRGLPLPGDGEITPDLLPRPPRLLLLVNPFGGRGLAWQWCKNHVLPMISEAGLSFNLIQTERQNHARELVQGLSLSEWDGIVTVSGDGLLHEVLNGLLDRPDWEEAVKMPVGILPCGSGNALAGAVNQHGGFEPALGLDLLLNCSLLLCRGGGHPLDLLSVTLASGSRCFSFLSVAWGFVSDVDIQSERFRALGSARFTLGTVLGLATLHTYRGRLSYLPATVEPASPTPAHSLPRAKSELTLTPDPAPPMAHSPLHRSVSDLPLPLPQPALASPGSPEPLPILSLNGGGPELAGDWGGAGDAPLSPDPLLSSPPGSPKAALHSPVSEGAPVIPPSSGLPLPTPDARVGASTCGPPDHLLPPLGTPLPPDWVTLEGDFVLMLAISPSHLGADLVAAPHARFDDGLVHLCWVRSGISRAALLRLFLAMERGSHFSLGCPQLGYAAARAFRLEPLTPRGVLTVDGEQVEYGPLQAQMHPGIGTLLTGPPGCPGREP
# Assay: Phosphorylation of fluorescent labeled sphingosines by SPHK-2 ([γ-32P]ATP, TLC)
# Format: biochemical
# Protocol: The phosphorylation reactions are performed essentially as follows. The cytoplasmic fraction of recombinant HEK-293 cells overexpressing human SPHK-1 or -2 is incubated at 30° in total volumes of 100 μl with SP derivatives (20 μM; added from stock solutions in DMSO), 1 mM of ATP, and 2 μCi [γ-^32P]ATP in 50 mM Hepes buffer (pH 7.4) containing 15 mM MgCl2, 0.005% Triton X-100, 10 mM KCl , 10 mM NaF and 1.5 mM semicarbazide. Following incubations for different time points up to 2 hours, lipids are extracted and separated by TLC-plates (Merck). TLC is performed on silica plates, using either BuOH/acetic acid/H2O 3:1:1 or CHCl3/MeOH/H2O/NH4OH (28^w/w%) 200:150:29:1 as the mobile phase. In these systems sphingosine and the compound of Example 4 co-migrate. Identity of the metabolites with pyrene-labeled SPP and sphingomyelin (SM) is established by co-migration with commercially available tritium-labeled SPP and SM as standards.
# Radiolabeled SPP derivatives are visualized and quantified using a Molecular Dynamics Storm Phosphorlmager (Sunnyvale, Calif.). The rate of phosphorylation is calculated and is reported for the fluorescent labeled sphingosines as value relative to the rate for sphingosine (for which the rate is 41 and 25 nmol/min/mg with SPHK-1 and -2, respectively). […]
smiles,measurement,value
N[C@@H](CO)[C@H](O)/C=C/CCCOC(=O)CCCCCCCCCc1cc2ccc3cccc4ccc(c1)c2c34 [Example 3],phosphorylation by SPHK-2 (in words),higher than using SPHK-1
